The nature of the data set: general procedure: solution-phase peptide synthesis; TBTU/DIPEA. The conditions noted are these: conjugation step.

Take “Methyl-protected alkyl-peptidyl fluoroquinolone building block (11)”: the conjugation yield was 54%.

Values taken from US20250295790A1 (Helmholtz-Zentrum für Infektionsforschung GmbH, priority 2021, published 2025).
